Patent publication US20220040297A1
These are yes or no findings as the source states them, for the method shown. Some entries that bind do so weakly or less than the wild type.

Protein sequences, listed by entry. Tags and fused reporters are not part of them. Residues count along the entry.
UniProt P07766, residues 23-126: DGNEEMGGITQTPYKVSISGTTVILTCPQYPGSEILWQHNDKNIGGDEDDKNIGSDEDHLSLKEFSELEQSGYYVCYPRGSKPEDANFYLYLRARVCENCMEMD

Target: CD3ε homodimer protein (human) (UniProt P07766)
Experiment: SPR Biacore, method of (6-3)

binding: binds
B1: CE115HA340 (antibody, human IgG1, L234A L235A, N297A, V domains shown)
VH: QVQLVESGGGLVQPGRSLRLSCAASGFTFSNAWMHWVRQAPGKGLEWVAQIKDKSNNYATYYAESVKGRFTISRDDSKNSIYLQMNSLKTEDTAVYYCRYVHYAAYYGVDAWGQGTTVTVSS
VL: DIVMTQSPLSLPVTPGEPASISCRSSQSLVHSNRNTYLHWYQQKPGQAPRLLIYKVSNRFSGVPDRFSGSGSGTDFTLKISRVEAEDVGVYYCGQGTQVPYTFGQGTKLEIK
